Laboratory results from article PMC7819943, “Rice protein-binding microarrays: a tool to detect cis-acting elements near promoter regions in rice”.
The other results are listed elsewhere or left out.

target: T1, OsSMF1 (Oryza sativa, UniProt Q6ZLB0 1-436); assay: protein-binding microarray (RPBM); PBS, 2% BSA, 51.3 ng/ul salmon testes DNA, 50 uM zinc acetate, 200 nM TF, 25 C, 1 h; high values mean tight binding; conditions: protein: recombinant; tags: N-terminal polyhistidine and DsRed monomer fusion (pET32a); chain copies: 2; label: CyDye5-dUTP incorporated in the synthesized complementary strand; 3' TTTTT single-stranded linker to array surface; dsDNA, one strand shown
T1 sequence: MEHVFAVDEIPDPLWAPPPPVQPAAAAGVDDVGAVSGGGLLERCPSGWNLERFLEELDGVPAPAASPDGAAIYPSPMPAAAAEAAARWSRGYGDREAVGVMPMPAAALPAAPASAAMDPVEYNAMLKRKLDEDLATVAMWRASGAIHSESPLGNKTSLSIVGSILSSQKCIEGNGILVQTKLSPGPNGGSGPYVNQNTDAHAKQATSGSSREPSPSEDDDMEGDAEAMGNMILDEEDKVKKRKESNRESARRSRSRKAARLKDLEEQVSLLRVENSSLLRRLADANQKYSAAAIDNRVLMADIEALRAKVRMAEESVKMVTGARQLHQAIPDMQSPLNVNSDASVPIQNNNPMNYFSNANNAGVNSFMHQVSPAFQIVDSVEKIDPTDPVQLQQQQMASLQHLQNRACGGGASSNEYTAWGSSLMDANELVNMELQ
Procedure, shortened: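 An Axon 4000B scanner gave the binding signal as per-feature fluorescence intensity in arbitrary units. This followed washing of a custom Agilent array that had been incubated for 1 h at 25 °C with 200 nM protein in PBS, 2% BSA, salmon testes DNA and 50 µM zinc acetate. The proteins were transcription factors fused at the N-terminus to polyhistidine and DsRed, expressed in E. coli BL21-CodonPlus and purified on Ni–NTA.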

Sequence | binding signal
CCTCAACGTGCCCCTCTTCCCTTCTGTTGATGTGGCTAGCCGGAGTCACCTAGTGCAG | 3550 fluorescence intensity (a.u.)
CGAAGGGTACACAGACTTCAGACACCACGGCCACCTCAGCCGGAGTCACCTAGTGCAG | 3720 fluorescence intensity (a.u.)
TCCGGCCCGCCTGCCGGCGACGGCCGTGATGACGCGTCGGCGGAGTCACCTAGTGCAG | 9740 fluorescence intensity (a.u.)
TGGCCGCGACGGCCTCATGCTCGTCCACCTCGGCTCCGTCCGGAGTCACCTAGTGCAG | 3620 fluorescence intensity (a.u.)
GGAAAATATCTACGAAGTTCTACCGTAACGTGGCACCCAGCGGAGTCACCTAGTGCAG | 4230 fluorescence intensity (a.u.)
CACAACGGAGACACGAATTTTACGTGGAAAACCCTTACGGCGGAGTCACCTAGTGCAG | 3190 fluorescence intensity (a.u.)
TGTATTTGATCCTACGTATATCTATGAGCTGTTACTACTACGGAGTCACCTAGTGCAG | 35800 fluorescence intensity (a.u.)
CGAGATTCTCTGCATTACTGTGGCTGACATGTGGGCTCTACGGAGTCACCTAGTGCAG | 3310 fluorescence intensity (a.u.)
CAAACGGAGGAGCAGGCCCCACGTCCACCACCACCTCATCCGGAGTCACCTAGTGCAG | 4210 fluorescence intensity (a.u.)
GATGCGGGACCTCAGCAGTGCTGTACACGTGTCATCCATCCGGAGTCACCTAGTGCAG | 23300 fluorescence intensity (a.u.)
TACATATACGCTCGTCTCGCCGTCGCAACCTCGTCACCTACGGAGTCACCTAGTGCAG | 4250 fluorescence intensity (a.u.)
AGTTTCTCTATGGGTAACTTCGGTTTGAAAGTAGTCTGAGCGGAGTCACCTAGTGCAG | 37300 fluorescence intensity (a.u.)
TAGATGCTTCTTTCCCTTGTCATTATGTTTTCTTCCCTGACGGAGTCACCTAGTGCAG | 3180 fluorescence intensity (a.u.)
GGAAGGGGTGACGTTCCCATTGTGATTCCCCTACGTTTGTCGGAGTCACCTAGTGCAG | 3280 fluorescence intensity (a.u.)
GGGTTGAGATGGGAGTAGAGGGGAGTGAGGTGGAAGAAGACGGAGTCACCTAGTGCAG | 3800 fluorescence intensity (a.u.)
GTAAAACGAACCCTAGGTTTGCTTTCCCCTCTCCTCTCGTCGGAGTCACCTAGTGCAG | 26000 fluorescence intensity (a.u.)
TTGGGAGGGAGAGTGGTAAAGGGTGCTGGGGCTTTGGCTGCGGAGTCACCTAGTGCAG | 4250 fluorescence intensity (a.u.)
AATAAATGTACATATGTATAATTAAAATCATCCATACTCACGGAGTCACCTAGTGCAG | 31700 fluorescence intensity (a.u.)
TGGAGAGATTACTGGTGTGATTCACCTGAAATGCCTCGGGCGGAGTCACCTAGTGCAG | 4470 fluorescence intensity (a.u.)
TGGCGTCCACGTGCTACCCCAAACCCACCCACCCAGCGCTCGGAGTCACCTAGTGCAG | 6990 fluorescence intensity (a.u.)
TCACACTCTGGCTATGACACATTTACAATTTTATCTTGGACGGAGTCACCTAGTGCAG | 3740 fluorescence intensity (a.u.)

Pulled one by one from above, 3 records:
Sequence | binding signal
GTAAAACGAACCCTAGGTTTGCTTTCCCCTCTCCTCTCGTCGGAGTCACCTAGTGCAG | 26000 fluorescence intensity (a.u.)
CACAACGGAGACACGAATTTTACGTGGAAAACCCTTACGGCGGAGTCACCTAGTGCAG | 3190 fluorescence intensity (a.u.)
CGAGATTCTCTGCATTACTGTGGCTGACATGTGGGCTCTACGGAGTCACCTAGTGCAG | 3310 fluorescence intensity (a.u.)

(listing goes on)

Sequence | binding signal
TGTTGCTGTTGCTGCTGTGAAGAGCCGGGAGGGGTTGACGCGGAGTCACCTAGTGCAG | 3460 fluorescence intensity (a.u.)
CCCTTCACCACCGGTTTCGGTTCGTCGGCACCAAGCCCCTCGGAGTCACCTAGTGCAG | 3300 fluorescence intensity (a.u.)
CGACGCGGCCGCCACCTCCCCTGACGCTGTCAGAGAGTGGCGGAGTCACCTAGTGCAG | 5900 fluorescence intensity (a.u.)
TCTCCCGCCTCGCCCCGTCAGTCTCCTCCCCACCCGCTGGCGGAGTCACCTAGTGCAG | 4100 fluorescence intensity (a.u.)
CTGCAAGTCCTCTCCGGCGTCCGCTTCTTTTCTCGCTTCTCGGAGTCACCTAGTGCAG | 3210 fluorescence intensity (a.u.)
TGTAAAACTAGACACCATGACTAATGTCATGTATAACTAGCGGAGTCACCTAGTGCAG | 3400 fluorescence intensity (a.u.)
CCTTTTCCCTCGCTTATGTTTGCACCCTGACCATAATGATCGGAGTCACCTAGTGCAG | 3270 fluorescence intensity (a.u.)
CGCTCGCCGCCCGCCGCCGACGGCGCGGCCGCGCTCTTCTCGGAGTCACCTAGTGCAG | 3460 fluorescence intensity (a.u.)
ATCGTCCTCTGCACCTGCACACATCATCACTGGGACAACCCGGAGTCACCTAGTGCAG | 3920 fluorescence intensity (a.u.)
CTACACACGAGACGTGCAAACCTGCAGATTTTGTTACTTGCGGAGTCACCTAGTGCAG | 4830 fluorescence intensity (a.u.)
CTTGCAGAGGTGGCGCTACAGCCGGCGTCCAGGCGTATGGCGGAGTCACCTAGTGCAG | 3920 fluorescence intensity (a.u.)
GTCCAATAGAAGAAAGGTAGGCGGTAGAAGTACTGTGAACCGGAGTCACCTAGTGCAG | 4000 fluorescence intensity (a.u.)
ACGAAAGCGCCGCCCGCCGCCGCGTCATCTCTTCTCTTCTCGGAGTCACCTAGTGCAG | 10500 fluorescence intensity (a.u.)
TATATGTGGGACCCGTTTGTTATTCACACACACAAAATTGCGGAGTCACCTAGTGCAG | 3750 fluorescence intensity (a.u.)
TAACTATATAAGTACACTTACATGTCATATCAACAGAATTCGGAGTCACCTAGTGCAG | 3420 fluorescence intensity (a.u.)
TTCATCACAGTCTAGTACTTCTTGCACCTGCATCATCTGCCGGAGTCACCTAGTGCAG | 3630 fluorescence intensity (a.u.)
ATAGGTGAGCCTGAACATGAATGAGTCAGCGACGAGTGGACGGAGTCACCTAGTGCAG | 10500 fluorescence intensity (a.u.)
GCAAAAGAGTGTTTCCCTATGCTGACGGCTCACGTCTTCTCGGAGTCACCTAGTGCAG | 4020 fluorescence intensity (a.u.)
ATGCTAGCCGCGCAATCTGCGCGGGCCACCATACTAGTTTCGGAGTCACCTAGTGCAG | 3160 fluorescence intensity (a.u.)
TTGTCTTCTCCCCGATGGCTAGAGTTATGACAGCGAGGGTCGGAGTCACCTAGTGCAG | 4040 fluorescence intensity (a.u.)
TATGTGGTATCTATAACTCTGACACATTATATGCAACTATCGGAGTCACCTAGTGCAG | 3420 fluorescence intensity (a.u.)
